The values below come from patent US20230212285A1.

Protein sequences, listed by entry. Tags and fused reporters are not part of them. Lines headed by an entry give the natural chain unless they say otherwise; changes in a name come on top.
UniProt P10721: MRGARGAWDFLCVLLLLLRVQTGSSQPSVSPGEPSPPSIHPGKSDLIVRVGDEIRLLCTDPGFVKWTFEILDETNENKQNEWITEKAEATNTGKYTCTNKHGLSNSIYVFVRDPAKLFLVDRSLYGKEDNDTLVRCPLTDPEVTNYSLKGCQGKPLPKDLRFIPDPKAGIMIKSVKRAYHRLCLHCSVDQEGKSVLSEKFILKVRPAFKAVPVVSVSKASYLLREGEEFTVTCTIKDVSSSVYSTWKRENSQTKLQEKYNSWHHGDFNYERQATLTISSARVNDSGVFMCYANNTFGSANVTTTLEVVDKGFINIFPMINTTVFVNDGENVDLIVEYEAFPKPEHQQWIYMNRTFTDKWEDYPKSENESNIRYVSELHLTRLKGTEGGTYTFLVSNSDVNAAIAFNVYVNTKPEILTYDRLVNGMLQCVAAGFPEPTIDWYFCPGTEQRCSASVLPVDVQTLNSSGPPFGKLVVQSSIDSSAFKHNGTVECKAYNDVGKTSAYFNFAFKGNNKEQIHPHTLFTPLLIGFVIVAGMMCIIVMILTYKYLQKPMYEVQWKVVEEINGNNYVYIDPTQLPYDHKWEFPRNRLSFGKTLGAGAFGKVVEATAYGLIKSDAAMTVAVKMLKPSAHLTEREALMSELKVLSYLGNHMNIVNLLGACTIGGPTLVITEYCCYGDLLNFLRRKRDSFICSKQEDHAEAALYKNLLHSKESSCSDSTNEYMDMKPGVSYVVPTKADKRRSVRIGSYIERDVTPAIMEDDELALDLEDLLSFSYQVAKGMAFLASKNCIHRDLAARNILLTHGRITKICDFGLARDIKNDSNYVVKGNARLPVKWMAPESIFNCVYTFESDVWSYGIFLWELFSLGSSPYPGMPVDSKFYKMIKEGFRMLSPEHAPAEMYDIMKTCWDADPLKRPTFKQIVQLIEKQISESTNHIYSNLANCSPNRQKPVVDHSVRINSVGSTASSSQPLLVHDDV

No constants are given. Whether binding was seen depends on the method and setting. Some binding calls cover weakened binding; strength is not graded here.

Assay [1] addresses human C-KIT-Fc protein (human) (UniProt P10721). In words: direct titration ELISA. (ELISA stands for enzyme-linked immunosorbent assay.)
Assay [2] has the same target. Put plainly: direct ELISA, 1 µg/ml.
The target is the same in assay [3]. Put plainly: HTRF epitope competition, IgG1-3M. Background: TR-FRET usually uses a lanthanide donor and a delayed reading to cut background.
For assay [4], the target named is human C-KIT on stably transfected CHO-K1 cells (human) (UniProt P10721). In words: flow cytometry. In general terms: In flow cytometry, cells or beads pass a laser one at a time.

B1: E-C7 (antibody, human IgG1, V domains shown)
VH: QVQLVQSGAEVKKPGASVKVSCKASGYTFTDYYMNWVRQAPGQGLEWMGRIYPGSGNTYYAQKFQGRVTMTRDTSTSTVYMELSSLRSEDTAVYYCARGVYYYDYWGQGTLVTVSS
VL: DIQMTQSPSSLSASVGDRVTITCRASQGIRTNLAWFQQKPGKAPKSLIYSASSLQSGVPSRFSGSGSGTDFTLTISSLQPEDFATYYCQQYNSYPRTFGGGTKVEIK
As for B1, the binding result in assay [1] and in assay [2] was “binds” throughout.

B2: MH5 IgG1-3M (antibody, V domains shown)
VH: QVQLVQSGAEVKKPGASVKVSCKASGYTFTDYYMNWVRQAPGQGLEWMGRIYPGSGNTYYAQKFQGRVTMTRDTSTSTVYMELSSLRSEDTAVYYCARGVYYYDYWGQGTLVTVSS
VL: DIQMTQSPSSLSASVGDRVTITCRASQGIRTNLAWFQQKPGKAPKSLIYSASSLQSGVPSRFSGSGSGTDFTLTISSLQPEDFATYYCQQYANYPRTFGGGTKVEIK
Turning to B2, the binding result in assay [3] is on record as “binds”.

B3: MH5.24 (antibody, human IgG1, V domains shown)
VH: QVQLVQSGAEVKKPGASVKVSCKASGYTFTDFYMNWVRQAPGQGLEWMGRIYPASGNTYYAQKFQGRVTMTRDTSTSTVYMELSSLRSEDTAVYYCARGVWYFDTWGQGTLVTVSS
VL: DIQMTQSPSSLSASVGDRVTITCRASQGIRTNLAWFQQKPGKAPKSLIYAASSLQSGVPSRFSGSGSGTDFTLTISSLQPEDFATYYCQQYANYPRTFGGGTKVEIK
Consider B3, for which the binding result in assay [1] and in assay [4] was “binds” throughout.

B4: MH5.34 (antibody, human IgG1, V domains shown)
VH: QVQLVQSGAEVKKPGASVKVSCKASGYTFTNYYMNWVRQAPGQGLEWMGRIYPASGNTYYAQKFQGRVTMTRDTSTSTVYMELSSLRSEDTAVYYCARGVWYFDSWGQGTLVTVSS
VL: DIQMTQSPSSLSASVGDRVTITCRASQGIRTNLAWFQQKPGKAPKSLIYAASSLQSGVPSRFSGSGSGTDFTLTISSLQPEDFATYYCQQYANYPRTFGGGTKVEIK
As for B4, the binding entry in assay [1] and in assay [4] was “binds” each time.

B5: MH5.23 (antibody, human IgG1, V domains shown)
VH: QVQLVQSGAEVKKPGASVKVSCKASGYTFTDFYMNWVRQAPGQGLEWMGRIYPASGNTYYAQKFQGRVTMTRDTSTSTVYMELSSLRSEDTAVYYCARGVWYFDSWGQGTLVTVSS
VL: DIQMTQSPSSLSASVGDRVTITCRASQGIRTNLAWFQQKPGKAPKSLIYAASSLQSGVPSRFSGSGSGTDFTLTISSLQPEDFATYYCQQYANYPRTFGGGTKVEIK
As for B5, the binding entry in assay [1] and in assay [4] was “binds” each time.

B6: MH1 IgG1-3M (antibody, V domains shown)
VH: QVQLVQSGAEVKKPGASVKVSCKASGYTFTDYYMNWVRQAPGQGLEWMGRIYPGSGNTYYAQKFQGRVTMTRDTSTSTVYMELSSLRSEDTAVYYCARGVYYYDYWGQGTLVTVSS
VL: DIQMTQSPSSLSASVGDRVTITCRASQGIRTNLAWFQQKPGKAPKSLIYAASSLQSGVPSRFSGSGSGTDFTLTISSLQPEDFATYYCQQYNSYPRTFGGGTKVEIK
Turning to B6, the binding entry in assay [3] was “binds”.

B7: MH5.2 (antibody, human IgG1, V domains shown)
VH: QVQLVQSGAEVKKPGASVKVSCKASGYTFTDFYMNWVRQAPGQGLEWMGRIYPGTGNTYYAQKFQGRVTMTRDTSTSTVYMELSSLRSEDTAVYYCARGVWYYDYWGQGTLVTVSS
VL: DIQMTQSPSSLSASVGDRVTITCRASQGIRTNLAWFQQKPGKAPKSLIYAASSLQSGVPSRFSGSGSGTDFTLTISSLQPEDFATYYCQQYANYPRTFGGGTKVEIK
Turning to B7, the binding entry in assay [1] and in assay [4] was “binds” in each case.

B8: MH5 IgG1 (antibody, V domains shown)
VH: QVQLVQSGAEVKKPGASVKVSCKASGYTFTDYYMNWVRQAPGQGLEWMGRIYPGSGNTYYAQKFQGRVTMTRDTSTSTVYMELSSLRSEDTAVYYCARGVYYYDYWGQGTLVTVSS
VL: DIQMTQSPSSLSASVGDRVTITCRASQGIRTNLAWFQQKPGKAPKSLIYSASSLQSGVPSRFSGSGSGTDFTLTISSLQPEDFATYYCQQYANYPRTFGGGTKVEIK
Turning to B8, the binding entry in assay [1], in assay [2] and in assay [4] was “binds” throughout.
